Results reported in PubChem BioAssay AID1671193 (National Center for Advancing Translational Sciences (NCATS), 2021).
The entries are a selection whose mix differs from that of the whole data set. Records with an inconclusive call do not appear. Active and inactive are the calls of the source. Calls come from the whole dose curve; as a rule, active = well fitted cell-killing curve with a large enough effect; inconclusive = small, poorly fitted or top-dose-only effect, or effect the other way; inactive = flat fitted curve, though single readings scatter.

Experiment: GF-AFC viability counterscreen for inhibitors of alpha-synuclein gene (SNCA) expression; note: nearly all actives have a fitted effect of over 30% in size
Conditions: HEK-293-SNCA-luc viability, GF-AFC fluorescence, 24 h
Excerpt: Assay Submitter (PI): Daniel R. Scoles Ph.D.
Department of Neurology, University of Utah, Salt Lake City, Utah
Accumulation of alpha-synuclein is a main underlying pathological feature of Parkinson's disease (PD) and alpha-synucleinopathies, for which lowering expression of the alpha-synuclein gene (SNCA) is a potential therapeutic avenue. Using a cell-based luciferase reporter of SNCA expression we performed a quantitative high throughput screen (qHTS) of 155,885 compounds in dose response. The screening assay was generated using genome editing to insert the luciferase gene downstream and in frame of the SNCA gene in HEK-293 cells (1). A viability counterscreen using GF-AFC was used to eliminate cytotoxic and false positive compounds. […]
Described herein are the results of the GF-AFC viability counterscreen for SNCA inhibitors; inactivity (no decrease in fluorescence signal, not cytotoxic) is the desired output for this assay. […]
7; Detector; Fluorescence; Measure fluorescence with ViewLux microplate reader (PerkinElmer) equipped with 405/10 excitation and 540/25 emission filters. […]
10; Detector; Luminescence; Measure luminescence with ViewLux microplate reader (PerkinElmer) equipped with clear filters. […]
10; Signals were analyzed, and dose-response curves were fit using the Hill equation. […]
Potency is the fitted concentration of half-maximal effect.

Row | SMILES | Potency
1 | COc1cc2nc(N3CCCC3)nc(NCCCCCN3CCCC3)c2cc1OC | active: 9.47 µM
